According to ChEMBL document CHEMBL5444388, “Affinity Phenotypic Cellular Literature for EUbOPEN Chemogenomic Library” (2024):
Further values from the same series stand in other lists.

Amino acid sequences for entries named in this document (tags omitted). A change or cut given only in a name is not applied to a line headed by its entry.
UniProt Q02224: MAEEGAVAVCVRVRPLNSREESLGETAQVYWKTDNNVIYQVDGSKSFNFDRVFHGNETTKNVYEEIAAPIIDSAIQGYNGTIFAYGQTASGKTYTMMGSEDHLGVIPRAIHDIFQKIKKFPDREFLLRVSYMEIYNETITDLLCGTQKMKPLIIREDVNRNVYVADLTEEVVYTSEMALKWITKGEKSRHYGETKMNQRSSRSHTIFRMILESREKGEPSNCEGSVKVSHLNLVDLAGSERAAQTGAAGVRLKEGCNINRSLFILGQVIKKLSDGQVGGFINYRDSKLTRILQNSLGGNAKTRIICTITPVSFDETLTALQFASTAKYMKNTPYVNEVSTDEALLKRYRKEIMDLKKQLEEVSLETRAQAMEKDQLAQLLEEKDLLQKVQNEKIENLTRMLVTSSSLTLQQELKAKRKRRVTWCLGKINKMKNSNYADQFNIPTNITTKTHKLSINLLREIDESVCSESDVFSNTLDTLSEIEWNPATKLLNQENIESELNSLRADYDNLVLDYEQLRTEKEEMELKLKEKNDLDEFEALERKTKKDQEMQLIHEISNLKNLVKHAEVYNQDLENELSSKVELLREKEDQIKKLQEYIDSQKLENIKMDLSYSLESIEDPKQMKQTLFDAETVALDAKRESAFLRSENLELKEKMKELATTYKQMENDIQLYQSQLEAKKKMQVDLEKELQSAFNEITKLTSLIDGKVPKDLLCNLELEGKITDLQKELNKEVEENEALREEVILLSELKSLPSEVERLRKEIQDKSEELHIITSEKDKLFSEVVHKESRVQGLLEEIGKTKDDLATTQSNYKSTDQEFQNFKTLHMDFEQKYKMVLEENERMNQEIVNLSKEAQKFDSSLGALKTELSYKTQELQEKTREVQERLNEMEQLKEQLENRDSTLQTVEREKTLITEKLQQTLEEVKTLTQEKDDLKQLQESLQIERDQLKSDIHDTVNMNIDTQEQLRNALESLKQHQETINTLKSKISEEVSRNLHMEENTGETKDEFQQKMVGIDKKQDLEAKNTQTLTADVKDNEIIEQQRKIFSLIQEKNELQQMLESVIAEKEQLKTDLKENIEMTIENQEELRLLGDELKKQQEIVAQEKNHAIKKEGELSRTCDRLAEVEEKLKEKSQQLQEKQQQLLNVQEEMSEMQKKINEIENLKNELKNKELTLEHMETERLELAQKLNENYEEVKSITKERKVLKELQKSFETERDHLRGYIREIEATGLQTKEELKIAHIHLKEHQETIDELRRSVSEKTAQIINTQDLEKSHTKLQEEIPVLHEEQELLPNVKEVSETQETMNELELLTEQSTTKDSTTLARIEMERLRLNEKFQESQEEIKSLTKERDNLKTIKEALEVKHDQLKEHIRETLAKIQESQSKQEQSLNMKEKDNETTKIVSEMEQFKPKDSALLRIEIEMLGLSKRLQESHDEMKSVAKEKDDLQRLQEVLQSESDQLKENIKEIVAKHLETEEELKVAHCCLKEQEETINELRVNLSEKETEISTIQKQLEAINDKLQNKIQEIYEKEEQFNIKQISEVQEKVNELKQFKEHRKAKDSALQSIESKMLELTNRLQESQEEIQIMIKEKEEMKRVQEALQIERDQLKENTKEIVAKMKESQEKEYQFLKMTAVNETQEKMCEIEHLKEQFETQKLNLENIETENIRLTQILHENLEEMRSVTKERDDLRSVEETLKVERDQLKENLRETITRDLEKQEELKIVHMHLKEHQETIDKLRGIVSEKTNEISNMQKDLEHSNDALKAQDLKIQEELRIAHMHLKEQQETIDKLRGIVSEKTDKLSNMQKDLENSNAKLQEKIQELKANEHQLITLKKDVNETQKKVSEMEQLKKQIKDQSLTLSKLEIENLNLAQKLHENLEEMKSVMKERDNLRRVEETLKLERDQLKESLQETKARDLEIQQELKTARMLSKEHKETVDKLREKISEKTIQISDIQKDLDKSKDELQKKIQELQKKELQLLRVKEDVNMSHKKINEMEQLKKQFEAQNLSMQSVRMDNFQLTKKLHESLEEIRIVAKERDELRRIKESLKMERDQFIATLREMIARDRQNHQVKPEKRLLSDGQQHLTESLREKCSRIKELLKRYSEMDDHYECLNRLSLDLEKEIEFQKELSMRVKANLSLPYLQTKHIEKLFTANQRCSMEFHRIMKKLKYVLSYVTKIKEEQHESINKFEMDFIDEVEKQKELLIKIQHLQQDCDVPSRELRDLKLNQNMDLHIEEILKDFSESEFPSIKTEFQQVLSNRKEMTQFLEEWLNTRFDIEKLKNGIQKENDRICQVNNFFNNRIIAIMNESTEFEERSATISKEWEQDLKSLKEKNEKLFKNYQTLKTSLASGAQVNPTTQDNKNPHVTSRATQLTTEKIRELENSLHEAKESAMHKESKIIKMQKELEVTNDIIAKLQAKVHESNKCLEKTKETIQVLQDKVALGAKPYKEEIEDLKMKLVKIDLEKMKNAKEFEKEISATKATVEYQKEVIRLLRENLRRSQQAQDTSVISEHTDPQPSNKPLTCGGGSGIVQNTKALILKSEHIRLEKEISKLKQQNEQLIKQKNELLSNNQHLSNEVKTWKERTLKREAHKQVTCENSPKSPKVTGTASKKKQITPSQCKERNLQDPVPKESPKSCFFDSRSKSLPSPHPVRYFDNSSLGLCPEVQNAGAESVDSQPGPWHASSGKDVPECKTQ

Legend:
Format in all cases: functional, cell-based
Parameters in all cases: recommended concentration 100 nM
[1] = target: Centromere-associated protein E (Homo sapiens) (UniProt Q02224); assay: Affinity Phenotypic Cellular interaction: (Cell-growth inhibition assays (growth inhibitory effect colon cancer cell line BC-2)) EUB0000734a CENPE; settings: Affinity Phenotypic Cellular Source Knowledge https://pubmed.ncbi.nlm.nih.gov/20167803/
[2] = target: Centromere-associated protein E (Homo sapiens) (UniProt Q02224); assay: Affinity Phenotypic Cellular interaction: (Cell-growth inhibition assays (growth inhibitory effect colon cancer cell line OVCAR-8)) EUB0000734a CENPE; settings: Affinity Phenotypic Cellular Source Knowledge https://pubmed.ncbi.nlm.nih.gov/20167803/
[3] = target: Centromere-associated protein E (Homo sapiens) (UniProt Q02224); assay: Affinity Phenotypic Cellular interaction: (Cell-growth inhibition assays (growth inhibitory effect colon cancer cell line NCI-H358)) EUB0000734a CENPE; settings: Affinity Phenotypic Cellular Source Knowledge https://pubmed.ncbi.nlm.nih.gov/20167803/
[4] = target: Centromere-associated protein E (Homo sapiens) (UniProt Q02224); assay: Affinity Phenotypic Cellular interaction: (Cell-growth inhibition assays (growth inhibitory effect colon cancer cell line SiHa)) EUB0000734a CENPE; settings: Affinity Phenotypic Cellular Source Knowledge https://pubmed.ncbi.nlm.nih.gov/20167803/
[5] = target: Centromere-associated protein E (Homo sapiens) (UniProt Q02224); assay: Affinity Phenotypic Cellular interaction: (Cell-growth inhibition assays (growth inhibitory effect colon cancer cell line SCaBER)) EUB0000734a CENPE; settings: Affinity Phenotypic Cellular Source Knowledge https://pubmed.ncbi.nlm.nih.gov/20167803/
[6] = target: Centromere-associated protein E (Homo sapiens) (UniProt Q02224); assay: Affinity Phenotypic Cellular interaction: (Cell-growth inhibition assays (growth inhibitory effect colon cancer cell line SCC-15)) EUB0000734a CENPE; settings: Affinity Phenotypic Cellular Source Knowledge https://pubmed.ncbi.nlm.nih.gov/20167803/
[7] = target: Centromere-associated protein E (Homo sapiens) (UniProt Q02224); assay: Affinity Phenotypic Cellular interaction: (Cell-growth inhibition assays (growth inhibitory effect colon cancer cell line MES-SA)) EUB0000734a CENPE; settings: Affinity Phenotypic Cellular Source Knowledge https://pubmed.ncbi.nlm.nih.gov/20167803/
[8] = target: Centromere-associated protein E (Homo sapiens) (UniProt Q02224); assay: Affinity Phenotypic Cellular interaction: (Cell-growth inhibition assays (growth inhibitory effect colon cancer cell line SK-N-DZ)) EUB0000734a CENPE; settings: Affinity Phenotypic Cellular Source Knowledge https://pubmed.ncbi.nlm.nih.gov/20167803/
[9] = target: Centromere-associated protein E (Homo sapiens) (UniProt Q02224); assay: Affinity Phenotypic Cellular interaction: (Cell-growth inhibition assays (growth inhibitory effect colon cancer cell line NCI-H295R)) EUB0000734a CENPE; settings: Affinity Phenotypic Cellular Source Knowledge https://pubmed.ncbi.nlm.nih.gov/20167803/
[10] = target: Centromere-associated protein E (Homo sapiens) (UniProt Q02224); assay: Affinity Phenotypic Cellular interaction: (Cell-growth inhibition assays (growth inhibitory effect colon cancer cell line M14)) EUB0000734a CENPE; settings: Affinity Phenotypic Cellular Source Knowledge https://pubmed.ncbi.nlm.nih.gov/20167803/
[11] = target: Centromere-associated protein E (Homo sapiens) (UniProt Q02224); assay: Affinity Phenotypic Cellular interaction: (Cell-growth inhibition assays (growth inhibitory effect colon cancer cell line SK-UT-1)) EUB0000734a CENPE; settings: Affinity Phenotypic Cellular Source Knowledge https://pubmed.ncbi.nlm.nih.gov/20167803/
[12] = target: Centromere-associated protein E (Homo sapiens) (UniProt Q02224); assay: Affinity Phenotypic Cellular interaction: (Cell-growth inhibition assays (growth inhibitory effect colon cancer cell line OVCAR-4)) EUB0000734a CENPE; settings: Affinity Phenotypic Cellular Source Knowledge https://pubmed.ncbi.nlm.nih.gov/20167803/
[13] = target: Centromere-associated protein E (Homo sapiens) (UniProt Q02224); assay: Affinity Phenotypic Cellular interaction: (Cell-growth inhibition assays (growth inhibitory effect colon cancer cell line HCT116)) EUB0000734a CENPE; settings: HCT-116, Affinity Phenotypic Cellular Source Knowledge https://pubmed.ncbi.nlm.nih.gov/20167803/
[14] = target: Centromere-associated protein E (Homo sapiens) (UniProt Q02224); assay: Affinity Phenotypic Cellular interaction: (Cell-growth inhibition assays (growth inhibitory effect colon cancer cell line Saos-2)) EUB0000734a CENPE; settings: Affinity Phenotypic Cellular Source Knowledge https://pubmed.ncbi.nlm.nih.gov/20167803/
[15] = target: Centromere-associated protein E (Homo sapiens) (UniProt Q02224); assay: Affinity Phenotypic Cellular interaction: (Cell-growth inhibition assays (growth inhibitory effect colon cancer cell line NCI-H460)) EUB0000734a CENPE; settings: Affinity Phenotypic Cellular Source Knowledge https://pubmed.ncbi.nlm.nih.gov/20167803/
[16] = target: Centromere-associated protein E (Homo sapiens) (UniProt Q02224); assay: Affinity Phenotypic Cellular interaction: (Cell-growth inhibition assays (growth inhibitory effect colon cancer cell line LOX IMVI)) EUB0000734a CENPE; settings: Affinity Phenotypic Cellular Source Knowledge https://pubmed.ncbi.nlm.nih.gov/20167803/
[17] = target: Centromere-associated protein E (Homo sapiens) (UniProt Q02224); assay: Affinity Phenotypic Cellular interaction: (Cell-growth inhibition assays (growth inhibitory effect colon cancer cell line NCI-H23)) EUB0000734a CENPE; settings: Affinity Phenotypic Cellular Source Knowledge https://pubmed.ncbi.nlm.nih.gov/20167803/
[18] = target: Centromere-associated protein E (Homo sapiens) (UniProt Q02224); assay: Affinity Phenotypic Cellular interaction: (Cell-growth inhibition assays (growth inhibitory effect colon cancer cell line SW620)) EUB0000734a CENPE; settings: SW-620, Affinity Phenotypic Cellular Source Knowledge https://pubmed.ncbi.nlm.nih.gov/20167803/
[19] = target: Centromere-associated protein E (Homo sapiens) (UniProt Q02224); assay: Affinity Phenotypic Cellular interaction: (Cell-growth inhibition assays (growth inhibitory effect colon cancer cell line CAL27)) EUB0000734a CENPE; settings: CAL-27, Affinity Phenotypic Cellular Source Knowledge https://pubmed.ncbi.nlm.nih.gov/20167803/
[20] = target: Centromere-associated protein E (Homo sapiens) (UniProt Q02224); assay: Affinity Phenotypic Cellular interaction: (Cell-growth inhibition assays (growth inhibitory effect colon cancer cell line SNU-5)) EUB0000734a CENPE; settings: Affinity Phenotypic Cellular Source Knowledge https://pubmed.ncbi.nlm.nih.gov/20167803/
[21] = target: Centromere-associated protein E (Homo sapiens) (UniProt Q02224); assay: Affinity Phenotypic Cellular interaction: (Cell-growth inhibition assays (growth inhibitory effect colon cancer cell line BFTC-905)) EUB0000734a CENPE; settings: Affinity Phenotypic Cellular Source Knowledge https://pubmed.ncbi.nlm.nih.gov/20167803/
[22] = target: Centromere-associated protein E (Homo sapiens) (UniProt Q02224); assay: Affinity Phenotypic Cellular interaction: (Cell-growth inhibition assays (growth inhibitory effect colon cancer cell line NCI-H146)) EUB0000734a CENPE; settings: Affinity Phenotypic Cellular Source Knowledge https://pubmed.ncbi.nlm.nih.gov/20167803/
[23] = target: Centromere-associated protein E (Homo sapiens) (UniProt Q02224); assay: Affinity Phenotypic Cellular interaction: (Cell-growth inhibition assays (growth inhibitory effect colon cancer cell line MCF7)) EUB0000734a CENPE; settings: Affinity Phenotypic Cellular Source Knowledge https://pubmed.ncbi.nlm.nih.gov/20167803/
[24] = target: Centromere-associated protein E (Homo sapiens) (UniProt Q02224); assay: Affinity Phenotypic Cellular interaction: (Cell-growth inhibition assays (growth inhibitory effect colon cancer cell line NCI-H596)) EUB0000734a CENPE; settings: Affinity Phenotypic Cellular Source Knowledge https://pubmed.ncbi.nlm.nih.gov/20167803/
[25] = target: Centromere-associated protein E (Homo sapiens) (UniProt Q02224); assay: Affinity Phenotypic Cellular interaction: (Cell-growth inhibition assays (growth inhibitory effect colon cancer cell line MDA-MB-453)) EUB0000734a CENPE; settings: Affinity Phenotypic Cellular Source Knowledge https://pubmed.ncbi.nlm.nih.gov/20167803/
[26] = target: Centromere-associated protein E (Homo sapiens) (UniProt Q02224); assay: Affinity Phenotypic Cellular interaction: (Cell-growth inhibition assays (growth inhibitory effect colon cancer cell line HT-1376)) EUB0000734a CENPE; settings: Affinity Phenotypic Cellular Source Knowledge https://pubmed.ncbi.nlm.nih.gov/20167803/
[27] = target: Centromere-associated protein E (Homo sapiens) (UniProt Q02224); assay: Affinity Phenotypic Cellular interaction: (Cell-growth inhibition assays (growth inhibitory effect neuroblastoma cancer cell line SK-N-F1)) EUB0000734a CENPE; settings: SK-N-FI, Affinity Phenotypic Cellular Source Knowledge https://pubmed.ncbi.nlm.nih.gov/20167803/
[28] = target: Centromere-associated protein E (Homo sapiens) (UniProt Q02224); assay: Affinity Phenotypic Cellular interaction: (Cell-growth inhibition assays (growth inhibitory effect colon cancer cell line NCI-H209)) EUB0000734a CENPE; settings: Affinity Phenotypic Cellular Source Knowledge https://pubmed.ncbi.nlm.nih.gov/20167803/
[29] = target: Centromere-associated protein E (Homo sapiens) (UniProt Q02224); assay: Affinity Phenotypic Cellular interaction: (Cell-growth inhibition assays (growth inhibitory effect colon cancer cell line SCC-9)) EUB0000734a CENPE; settings: Affinity Phenotypic Cellular Source Knowledge https://pubmed.ncbi.nlm.nih.gov/20167803/
[30] = target: Centromere-associated protein E (Homo sapiens) (UniProt Q02224); assay: Affinity Phenotypic Cellular interaction: (Cell-growth inhibition assays (growth inhibitory effect colon cancer cell line Hep3B)) EUB0000734a CENPE; settings: Hep 3B2, Affinity Phenotypic Cellular Source Knowledge https://pubmed.ncbi.nlm.nih.gov/20167803/
[31] = target: Centromere-associated protein E (Homo sapiens) (UniProt Q02224); assay: Affinity Phenotypic Cellular interaction: (Cell-growth inhibition assays (growth inhibitory effect colon cancer cell line NCI-H2170)) EUB0000734a CENPE; settings: Affinity Phenotypic Cellular Source Knowledge https://pubmed.ncbi.nlm.nih.gov/20167803/
[32] = target: Centromere-associated protein E (Homo sapiens) (UniProt Q02224); assay: Affinity Phenotypic Cellular interaction: (Cell-growth inhibition assays (growth inhibitory effect colon cancer cell line 5637)) EUB0000734a CENPE; settings: Affinity Phenotypic Cellular Source Knowledge https://pubmed.ncbi.nlm.nih.gov/20167803/
[33] = target: Centromere-associated protein E (Homo sapiens) (UniProt Q02224); assay: Affinity Phenotypic Cellular interaction: (Cell-growth inhibition assays (growth inhibitory effect colon cancer cell line SNU-1)) EUB0000734a CENPE; settings: SNU1, Affinity Phenotypic Cellular Source Knowledge https://pubmed.ncbi.nlm.nih.gov/20167803/
[34] = target: Centromere-associated protein E (Homo sapiens) (UniProt Q02224); assay: Affinity Phenotypic Cellular interaction: (Cell-growth inhibition assays (growth inhibitory effect colon cancer cell line HCC2998)) EUB0000734a CENPE; settings: HCC 2998, Affinity Phenotypic Cellular Source Knowledge https://pubmed.ncbi.nlm.nih.gov/20167803/
[35] = target: Centromere-associated protein E (Homo sapiens) (UniProt Q02224); assay: Affinity Phenotypic Cellular interaction: (Cell-growth inhibition assays (growth inhibitory effect colon cancer cell line UM-UC-3)) EUB0000734a CENPE; settings: UMUC3, Affinity Phenotypic Cellular Source Knowledge https://pubmed.ncbi.nlm.nih.gov/20167803/
[36] = target: Centromere-associated protein E (Homo sapiens) (UniProt Q02224); assay: Affinity Phenotypic Cellular interaction: (Cell-growth inhibition assays (growth inhibitory effect colon cancer cell line MDA-MB-468)) EUB0000734a CENPE; settings: Affinity Phenotypic Cellular Source Knowledge https://pubmed.ncbi.nlm.nih.gov/20167803/

## CC(C)Oc1ccc(C(=O)N[C@H](CNC(=O)CN(C)C)Cc2ccc(-c3cn4cccc([C@H](C)O)c4n3)cc2)cc1Cl
[1]
  GIC50: 45 nM
[2]
  GIC50: 50 nM
[3]
  GIC50: 18 nM
[4]
  GIC50: 29 nM
[5]
  GIC50: 54 nM
[6]
  GIC50: 63 nM
[7]
  GIC50: 65 nM
[8]
  GIC50: 69 nM
[9]
  GIC50: 298 nM
[10]
  GIC50: 27 nM
[11]
  GIC50: 23 nM
[12]
  GIC50: 30 nM
[13]
  GIC50: 31 nM
[14]
  GIC50: 41 nM
[15]
  GIC50: 29 nM
[16]
  GIC50: 25 nM
[17]
  GIC50: 27 nM
[18]
  GIC50: 47 nM
[19]
  GIC50: 47 nM
[20]
  GIC50: 88 nM
[21]
  GIC50: 30 nM
[22]
  GIC50: 5.23 µM
[23]
  GIC50: 29 nM
[24]
  GIC50: 5.02 µM
[25]
  GIC50: 27 nM
[26]
  GIC50: 33 nM
[27]
  GIC50: 120 nM
[28]
  GIC50: 20 nM
[29]
  GIC50: 24 nM
[30]
  GIC50: 164 nM
[31]
  GIC50: 25 nM
[32]
  GIC50: 23 nM
[33]
  GIC50: 10 µM
[34]
  GIC50: 29 nM
[35]
  GIC50: 23 nM
[36]
  GIC50: 25 nM
